# Measurements taken from PMC2688750.
# Sequences of proteins named here, by UniProt entry; tags and fusion partners are left off.
# UniProt P02730: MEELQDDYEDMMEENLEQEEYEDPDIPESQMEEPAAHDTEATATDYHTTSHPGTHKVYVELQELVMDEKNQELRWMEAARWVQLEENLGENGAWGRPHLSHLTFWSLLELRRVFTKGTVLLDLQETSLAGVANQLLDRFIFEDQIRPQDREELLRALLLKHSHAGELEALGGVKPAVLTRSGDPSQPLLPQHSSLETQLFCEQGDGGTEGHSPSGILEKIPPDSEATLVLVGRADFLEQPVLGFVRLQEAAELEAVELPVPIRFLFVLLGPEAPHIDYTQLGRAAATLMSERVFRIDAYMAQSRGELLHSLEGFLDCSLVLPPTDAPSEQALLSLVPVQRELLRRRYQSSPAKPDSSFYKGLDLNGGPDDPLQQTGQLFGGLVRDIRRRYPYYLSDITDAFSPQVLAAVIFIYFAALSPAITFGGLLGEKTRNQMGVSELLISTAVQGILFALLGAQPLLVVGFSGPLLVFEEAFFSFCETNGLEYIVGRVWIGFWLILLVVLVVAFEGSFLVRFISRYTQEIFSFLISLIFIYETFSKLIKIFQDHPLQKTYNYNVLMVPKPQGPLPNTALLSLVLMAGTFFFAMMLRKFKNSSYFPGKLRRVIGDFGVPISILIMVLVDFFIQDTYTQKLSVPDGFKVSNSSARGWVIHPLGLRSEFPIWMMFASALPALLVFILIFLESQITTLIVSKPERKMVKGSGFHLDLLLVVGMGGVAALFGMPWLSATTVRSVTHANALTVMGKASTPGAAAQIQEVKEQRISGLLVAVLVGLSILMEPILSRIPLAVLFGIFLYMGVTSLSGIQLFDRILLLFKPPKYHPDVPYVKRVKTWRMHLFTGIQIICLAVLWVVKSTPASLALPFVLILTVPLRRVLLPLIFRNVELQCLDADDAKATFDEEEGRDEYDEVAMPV
# No constants are given. Whether binding was seen depends on the method and setting. Some binding calls cover weakened binding; strength is not graded here.
# Target: erythrocyte membrane protein band 3 (human (endogenous in erythrocytes)) (UniProt P02730)
# Assay: SDS-PAGE and immunoblot (dimer band that persists on the gel); sucrose gradient fractions of erythrocytes lysed in 1% Triton X-100; 4-12% Bis-Tris gel under reducing conditions; probed with a monoclonal antibody to band 3; AA and CC erythrocytes, DRM and bottom fractions
substance,measurement,value
erythrocyte membrane protein band 3 (from UniProt P02730 1-911),binding,binds
